# Reference: the supplement of paper PMC8728848
# The other results are listed elsewhere or left out.
# B1: CM2 (Cordyceps militaris) (protein)
# chain: MEIAEQNVGKSCAIVNLIPPKEGSNIWTAKQVTIARNLPPNRGTGRHQIDWSFGPVKVTGYVDTTNWEIGVTVSIMGIDLGTVYGNLRDGVVLNVDLFLAKGQVRFYLKNGNEVWVHLSVEIRFDGKFEGDYKIITV
# Key:
# Assay in all cases: glycan array binding signal (z-score within array); higher = stronger binding
# Details in all cases: glycan notation: IUPAC condensed, linker removed
# [1] = target: Fuc(a1-2)[Gal(a1-3)]Gal(b1-4)GlcNAc(b1-2)Man(a1-3)[Fuc(a1-2)[Gal(a1-3)]Gal(b1-4)GlcNAc(b1-2)Man(a1-6)]Man(b1-4)GlcNAc(b1-4)[Fuc(a1-6)]GlcNAc
# Method in brief: (§1)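 The binding signal is a Z-score computed within each array and averaged over linkers. Arrays of the same protein sequence at different concentrations or buffers were also averaged together. Data originate from 3228 arrays in the Consortium for Functional Glycomics database, kept only where the protein sequence was available.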
# [2] = target: Fuc(a1-2)[Gal(a1-3)]Gal(b1-4)GlcNAc(b1-3)GalNAc
# Method in brief: as §1
# [3] = target: Fuc(a1-2)[Gal(a1-3)]Gal(b1-4)GlcNAc(b1-3)[Fuc(a1-2)[Gal(a1-3)]Gal(b1-4)GlcNAc(b1-6)]GalNAc
# Method in brief: as §1
# [4] = target: Fuc(a1-2)[Gal(a1-3)]Gal(b1-4)GlcNAc(b1-6)GalNAc
# Method in brief: as §1
# [5] = target: Fuc(a1-2)[Gal(a1-3)]Gal(b1-4)[Fuc(a1-3)]Glc
# Method in brief: as §1
# [6] = target: Fuc(a1-2)[Gal(a1-3)]Gal(b1-4)[Fuc(a1-3)]GlcNAc
# Method in brief: as §1
# [7] = target: Fuc(a1-2)[Gal(a1-3)]Gal(b1-4)[Fuc(a1-3)]GlcNAc(b1-3)GalNAc
# Method in brief: as §1
# [8] = target: Fuc(a1-2)[Gal(a1-4)]Gal(b1-4)GlcNAc
# Method in brief: as §1
# [9] = target: Fuc(a1-2)[GalNAc(a1-3)]Gal
# Method in brief: as §1
# [10] = target: Fuc(a1-2)[GalNAc(a1-3)]Gal(b1-3)GalNAc(a1-3)[Fuc(a1-2)]Gal(b1-4)GlcNAc
# Method in brief: as §1
# [11] = target: Fuc(a1-2)[GalNAc(a1-3)]Gal(b1-3)GalNAc(b1-3)Gal(a1-4)Gal(b1-4)Glc
# Method in brief: as §1
# [12] = target: Fuc(a1-2)[GalNAc(a1-3)]Gal(b1-3)GlcNAc
# Method in brief: as §1
# [13] = target: Fuc(a1-2)[GalNAc(a1-3)]Gal(b1-3)GlcNAc(b1-2)Man(a1-3)[Fuc(a1-2)[GalNAc(a1-3)]Gal(b1-3)GlcNAc(b1-2)Man(a1-6)]Man(b1-4)GlcNAc(b1-4)GlcNAc
# Method in brief: as §1
# [14] = target: Fuc(a1-2)[GalNAc(a1-3)]Gal(b1-3)GlcNAc(b1-2)Man(a1-3)[Fuc(a1-2)[GalNAc(a1-3)]Gal(b1-3)GlcNAc(b1-2)Man(a1-6)]Man(b1-4)GlcNAc(b1-4)[Fuc(a1-6)]GlcNAc
# Method in brief: as §1
# [15] = target: Fuc(a1-2)[GalNAc(a1-3)]Gal(b1-3)GlcNAc(b1-3)GalNAc
# Method in brief: as §1
# [16] = target: Fuc(a1-2)[GalNAc(a1-3)]Gal(b1-3)GlcNAc(b1-6)GalNAc
# Method in brief: as §1
# [17] = target: Fuc(a1-2)[GalNAc(a1-3)]Gal(b1-4)Glc
# Method in brief: as §1
# [18] = target: Fuc(a1-2)[GalNAc(a1-3)]Gal(b1-4)GlcNAc
# Method in brief: as §1
# [19] = target: Fuc(a1-2)[GalNAc(a1-3)]Gal(b1-4)GlcNAc(b1-2)Man
# Method in brief: as §1
# [20] = target: Fuc(a1-2)[GalNAc(a1-3)]Gal(b1-4)GlcNAc(b1-2)Man(a1-3)[Fuc(a1-2)[GalNAc(a1-3)]Gal(b1-4)GlcNAc(b1-2)Man(a1-6)]Man(b1-4)GlcNAc(b1-4)GlcNAc
# Method in brief: as §1
# [21] = target: Fuc(a1-2)[GalNAc(a1-3)]Gal(b1-4)GlcNAc(b1-2)Man(a1-3)[Fuc(a1-2)[GalNAc(a1-3)]Gal(b1-4)GlcNAc(b1-2)Man(a1-6)]Man(b1-4)GlcNAc(b1-4)[Fuc(a1-6)]GlcNAc
# Method in brief: as §1
# [22] = target: Fuc(a1-2)[GalNAc(a1-3)]Gal(b1-4)GlcNAc(b1-3)Gal(b1-4)GlcNAc
# Method in brief: as §1
# [23] = target: Fuc(a1-2)[GalNAc(a1-3)]Gal(b1-4)GlcNAc(b1-3)Gal(b1-4)GlcNAc(b1-3)Gal(b1-4)GlcNAc
# Method in brief: as §1
# [24] = target: Fuc(a1-2)[GalNAc(a1-3)]Gal(b1-4)GlcNAc(b1-3)GalNAc
# Method in brief: as §1
# [25] = target: Fuc(a1-2)[GalNAc(a1-3)]Gal(b1-4)GlcNAc(b1-3)[Fuc(a1-2)[GalNAc(a1-3)]Gal(b1-4)GlcNAc(b1-6)]GalNAc
# Method in brief: as §1
# [26] = target: Fuc(a1-2)[GalNAc(a1-3)]Gal(b1-4)GlcNAc(b1-6)GalNAc
# Method in brief: as §1
# [27] = target: Fuc(a1-2)[GalNAc(a1-3)]Gal(b1-4)[Fuc(a1-3)]GlcNAc
# Method in brief: as §1
# [28] = target: Fuc(a1-2)[GalNAc(a1-3)]Gal(b1-4)[Fuc(a1-3)]GlcNAc(b1-3)GalNAc
# Method in brief: as §1
# [29] = target: Fuc(a1-2)[GalNAc(a1-4)]Gal(b1-4)GlcNAc
# Method in brief: as §1
# [30] = target: Fuc(a1-2)[GalNAc(b1-3)]Gal
# Method in brief: as §1
binder,measurement,setting,value
B1,glycan array binding signal (z-score),[1],-0.342
same,glycan array binding signal (z-score),[2],0.967
same,glycan array binding signal (z-score),[3],-0.643
same,glycan array binding signal (z-score),[4],-0.258
same,glycan array binding signal (z-score),[5],-1.02
same,glycan array binding signal (z-score),[6],1.81
same,glycan array binding signal (z-score),[7],0.494
same,glycan array binding signal (z-score),[8],0.665
same,glycan array binding signal (z-score),[9],0.209
same,glycan array binding signal (z-score),[10],-1.09
same,glycan array binding signal (z-score),[11],0.024
same,glycan array binding signal (z-score),[12],1.61
same,glycan array binding signal (z-score),[13],0.606
same,glycan array binding signal (z-score),[14],0.571
same,glycan array binding signal (z-score),[15],1.29
same,glycan array binding signal (z-score),[16],-0.212
same,glycan array binding signal (z-score),[17],0.04
same,glycan array binding signal (z-score),[18],-0.133
same,glycan array binding signal (z-score),[19],-1.45
same,glycan array binding signal (z-score),[20],0.549
same,glycan array binding signal (z-score),[21],0.394
same,glycan array binding signal (z-score),[22],-0.015
same,glycan array binding signal (z-score),[23],0.696
same,glycan array binding signal (z-score),[24],-1.16
same,glycan array binding signal (z-score),[25],-0.271
same,glycan array binding signal (z-score),[26],-0.241
same,glycan array binding signal (z-score),[27],-1.41
same,glycan array binding signal (z-score),[28],0.706
same,glycan array binding signal (z-score),[29],0.106
same,glycan array binding signal (z-score),[30],-1.87

# Already shown: entries from further up.
binder,measurement,setting,value
B1,glycan array binding signal (z-score),[15],1.29
same,glycan array binding signal (z-score),[16],-0.212
